These results are taken from article PMC10711656, “RZZ‐Spindly and CENP‐E form an integrated platform to recruit dynein to the kinetochore corona” (The EMBO Journal, 2023).

The chains behind the UniProt entries cited, without tags or fusion partners. Residues count along the entry.
UniProt O60566, residues 766-1050: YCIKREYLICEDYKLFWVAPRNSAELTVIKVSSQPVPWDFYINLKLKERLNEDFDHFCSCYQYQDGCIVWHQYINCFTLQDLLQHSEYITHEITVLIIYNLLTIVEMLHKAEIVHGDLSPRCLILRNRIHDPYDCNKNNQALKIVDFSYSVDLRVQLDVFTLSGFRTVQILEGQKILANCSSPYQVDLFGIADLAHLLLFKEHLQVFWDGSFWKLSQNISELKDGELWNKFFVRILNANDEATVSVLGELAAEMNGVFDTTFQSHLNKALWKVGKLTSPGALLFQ

For assay [1], the target named is BUBR1 kinase domain (UniProt O60566). In words: SEC; analytical SEC; 16 μM CENP-E proteins mixed with 8 μM BUBR1^KD in 30 μl; Superose 6 5/150 or Superdex 200 5/150; 50 mM HEPES pH 8.0, 100 mM NaCl, 5% glycerol, 0.5 mM TCEP; 4°C; fractions by SDS-PAGE; both purified.
Assay [2] addresses EGFP‐CENP‐E^2070C (human) (UniProt Q02224). Kind of assay: SEC; analytical SEC; Superdex 200 15/50; 50 mM HEPES pH 8.0, 150 mM NaCl, 2 mM TCEP; 4°C; mixed in 60 μl and kept at least 1 h on ice; PE 3 μM or CENP-E^2070C 20 μM with Spindly constructs 16 μM; both purified. Background: SEC sorts molecules by how far they enter the pores of the column.

Results are given in words; binding and its absence hold for the method and conditions named. Some results given as binding are weak or reduced against the parent protein; the word gives no strength.

In the case of “EGFP‐CENP‐E^2070–2365 (from UniProt Q02224 2070-2365) (domain or fragment)”, the binding entry in assay [1] was “binds”.

B1: EGFP‐CENP‐E^2366C (domain or fragment, human, UniProt Q02224 2366-2701, looked up)
chain: NKNPHVTSRATQLTTEKIRELENSLHEAKESAMHKESKIIKMQKELEVTNDIIAKLQAKVHESNKCLEKTKETIQVLQDKVALGAKPYKEEIEDLKMKLVKIDLEKMKNAKEFEKEISATKATVEYQKEVIRLLRENLRRSQQAQDTSVISEHTDPQPSNKPLTCGGGSGIVQNTKALILKSEHIRLEKEISKLKQQNEQLIKQKNELLSNNQHLSNEVKTWKERTLKREAHKQVTCENSPKSPKVTGTASKKKQITPSQCKERNLQDPVPKESPKSCFFDSRSKSLPSPHPVRYFDNSSLGLCPEVQNAGAESVDSQPGPWHASSGKDVPECKTQ
notes: source: E. coli BL21 (DE3) RP plus, purified (HisTrap FF, Superose 6); not shown: EGFP, N-terminal, kept
Regarding B1, in assay [1], the binding result is reported as “no binding (tested: 16 μM CENP-E, 8 μM BUBR1^KD)”.

B2: mCherry‐Spindly (protein, UniProt Q96EA4 1-605)
chain: MEADIITNLRCRLKEAEEERLKAAQYGLQLVESQNELQNQLDKCRNEMMTMTESYEQEKYTLQREVELKSRMLESLSCECEAIKQQQKMHLEKLEEQLSRSHGQEVNELKTKIEKLKVELDEARLSEKQLKHQVDHQKELLSCKSEELRVMSERVQESMSSEMLALQIELTEMESMKTTLKEEVNELQYRQEQLELLITNLMRQVDRLKEEKEEREKEAVSYYNALEKARVANQDLQVQLDQALQQALDPNSKGNSLFAEVEDRRAAMERQLISMKVKYQSLKKQNVFNREQMQRMKLQIATLLQMKGSQTEFEQQERLLAMLEQKNGEIKHLLGEIRNLEKFKNLYDSMESKPSVDSGTLEDNTYYTDLLQMKLDNLNKEIESTKGELSIQRMKALFESQRALDIERKLFANERCLQLSESENMKLRAKLDELKLKYEPEETVEVPVLKKRREVLPVDITTAKDACVNNSALGGEVYRLPPQKEETQSCPNSLEDNNLQLEKSVSIYTPVVSLSPHKNLPVDMQLKKEKKCVKLIGVPADAEALSERSGNTPNSPRLAAESKLQTEVKEGKETSSKLEKETCKKLHPILYVSSKSTPETQCPQQ
As to B2, in assay [2], the binding entry is “no binding (tested: CENP‐E: 20 μM, Spindly constructs: 16 μM)”.

B3: EGFP‐CENP‐E^2070C (domain or fragment, human, UniProt Q02224 2070-2701, looked up)
chain: RQNHQVKPEKRLLSDGQQHLTESLREKCSRIKELLKRYSEMDDHYECLNRLSLDLEKEIEFQKELSMRVKANLSLPYLQTKHIEKLFTANQRCSMEFHRIMKKLKYVLSYVTKIKEEQHESINKFEMDFIDEVEKQKELLIKIQHLQQDCDVPSRELRDLKLNQNMDLHIEEILKDFSESEFPSIKTEFQQVLSNRKEMTQFLEEWLNTRFDIEKLKNGIQKENDRICQVNNFFNNRIIAIMNESTEFEERSATISKEWEQDLKSLKEKNEKLFKNYQTLKTSLASGAQVNPTTQDNKNPHVTSRATQLTTEKIRELENSLHEAKESAMHKESKIIKMQKELEVTNDIIAKLQAKVHESNKCLEKTKETIQVLQDKVALGAKPYKEEIEDLKMKLVKIDLEKMKNAKEFEKEISATKATVEYQKEVIRLLRENLRRSQQAQDTSVISEHTDPQPSNKPLTCGGGSGIVQNTKALILKSEHIRLEKEISKLKQQNEQLIKQKNELLSNNQHLSNEVKTWKERTLKREAHKQVTCENSPKSPKVTGTASKKKQITPSQCKERNLQDPVPKESPKSCFFDSRSKSLPSPHPVRYFDNSSLGLCPEVQNAGAESVDSQPGPWHASSGKDVPECKTQ
notes: codon-optimised cDNA; The His6-EGFP tag is PreScission-cleavable, but no cleavage step is described; source: insect cells (biGBac; baculovirus from Sf9, expression in Tnao38), purified (HisTrap, Superdex 200); not shown: EGFP, N-terminal, kept
Turning to B3, the binding result in assay [1] is on record as “binds”.
